{"source": "PubChem BioAssay AID1259424 (University of Nebraska Medical Center, 2018)", "purpose": "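Rank knockdowns across the genome by resemblance to the KSR1 depletion profile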 (primary screen)", "cells": "human HCT116 colon cancer cells", "knock-down reagent": "siRNA pool against human genes, 50 nM", "measured": "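Six signature mRNAs by branched-DNA multiplex assay, scaled to two housekeeping genes and non-targeting median, log2; matched to mean KSR1 knockdown profile by Pearson correlation and euclidean distance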", "direction": "mean correlation with KSR1 profile: higher = expression change more like KSR1 knockdown; mean distance from KSR1 profile: higher = expression change less like KSR1 knockdown", "note": "This is one part, drawn at random, of about 14,000 deposited reagents. 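Higher correlation or smaller distance means closer resemblance to KSR1 loss; control wells, including KSR1 knockdowns, recur on many plates.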 Further read-outs or replicates are left out here. The record does not give: the time to read-out."}
{"target": "CALU", "PubChem SID": "SID363992504", "mean correlation with KSR1 profile": -0.707, "mean distance from KSR1 profile": 4.06}
{"target": "DDAH1", "PubChem SID": "SID363998082", "mean correlation with KSR1 profile": -0.435, "mean distance from KSR1 profile": 1.78}
{"target": "TRIM62", "PubChem SID": "SID364000877", "mean correlation with KSR1 profile": -0.0947, "mean distance from KSR1 profile": 1.62}
{"target": "RWDD1", "PubChem SID": "SID363999746", "mean correlation with KSR1 profile": 0.0948, "mean distance from KSR1 profile": 1.72}
{"target": "MYT1L", "PubChem SID": "SID364005123", "mean correlation with KSR1 profile": -0.299, "mean distance from KSR1 profile": 1.53}
{"target": "CAMK2D", "PubChem SID": "SID363992506", "mean correlation with KSR1 profile": 0.61, "mean distance from KSR1 profile": 1.2}
{"target": "FAM193B", "PubChem SID": "SID364001364", "mean correlation with KSR1 profile": -0.522, "mean distance from KSR1 profile": 2.63}
{"target": "ITGB7", "PubChem SID": "SID363992174", "mean correlation with KSR1 profile": -0.572, "mean distance from KSR1 profile": 2.56}
{"target": "PLGLB2", "PubChem SID": "SID363993833", "mean correlation with KSR1 profile": -0.569, "mean distance from KSR1 profile": 2.54}
{"target": "SANBR", "PubChem SID": "SID364004019", "mean correlation with KSR1 profile": -0.168, "mean distance from KSR1 profile": 3.04}
{"target": "SERAC1", "PubChem SID": "SID364004235", "mean correlation with KSR1 profile": 0.608, "mean distance from KSR1 profile": 1.82}
{"target": "ST7L", "PubChem SID": "SID364000491", "mean correlation with KSR1 profile": 0.444, "mean distance from KSR1 profile": 3.63}
{"target": "CORO1A", "PubChem SID": "SID363997803", "mean correlation with KSR1 profile": 0.347, "mean distance from KSR1 profile": 2.13}
{"target": "DENND5A", "PubChem SID": "SID363999365", "mean correlation with KSR1 profile": -0.446, "mean distance from KSR1 profile": 3.3}
{"target": "CSNK1A1L", "PubChem SID": "SID364004649", "mean correlation with KSR1 profile": -0.278, "mean distance from KSR1 profile": 3.67}
{"target": "TIPE2", "PubChem SID": "SID364002881", "mean correlation with KSR1 profile": 0.546, "mean distance from KSR1 profile": 1.75}
{"target": "SH3TC2", "PubChem SID": "SID364002883", "mean correlation with KSR1 profile": 0.271, "mean distance from KSR1 profile": 3.73}
{"target": "MTMR14", "PubChem SID": "SID364002470", "mean correlation with KSR1 profile": -0.182, "mean distance from KSR1 profile": 1.1}
{"target": "TMEM115", "PubChem SID": "SID363997756", "mean correlation with KSR1 profile": -0.0309, "mean distance from KSR1 profile": 2.74}
{"target": "TNFSF12", "PubChem SID": "SID364004755", "mean correlation with KSR1 profile": 0.666, "mean distance from KSR1 profile": 2.01}
{"target": "NPPC", "PubChem SID": "SID364002814", "mean correlation with KSR1 profile": 0.108, "mean distance from KSR1 profile": 1.45}
{"target": "DPP8", "PubChem SID": "SID364000490", "mean correlation with KSR1 profile": -0.00374, "mean distance from KSR1 profile": 1.49}
{"target": "SPINK5", "PubChem SID": "SID363997610", "mean correlation with KSR1 profile": 0.0846, "mean distance from KSR1 profile": 1.72}
{"target": "FCGR3B", "PubChem SID": "SID363991890", "mean correlation with KSR1 profile": -0.144, "mean distance from KSR1 profile": 3.87}
{"target": "PCDHB13", "PubChem SID": "SID364001260", "mean correlation with KSR1 profile": 0.464, "mean distance from KSR1 profile": 3.64}
{"target": "FPR3", "PubChem SID": "SID363993240", "mean correlation with KSR1 profile": 0.537, "mean distance from KSR1 profile": 1.35}
{"target": "KCNC4", "PubChem SID": "SID363995919", "mean correlation with KSR1 profile": -0.321, "mean distance from KSR1 profile": 4.57}
{"target": "EREG", "PubChem SID": "SID363992696", "mean correlation with KSR1 profile": -0.346, "mean distance from KSR1 profile": 2.6}
{"target": "ATXN3", "PubChem SID": "SID363995932", "mean correlation with KSR1 profile": 0.0417, "mean distance from KSR1 profile": 1.53}
{"target": "TMEM109", "PubChem SID": "SID364002742", "mean correlation with KSR1 profile": 0.00891, "mean distance from KSR1 profile": 1.81}
{"target": "TUFT1", "PubChem SID": "SID364001491", "mean correlation with KSR1 profile": -0.217, "mean distance from KSR1 profile": 3.66}
{"target": "TNFRSF13B", "PubChem SID": "SID363998328", "mean correlation with KSR1 profile": -0.171, "mean distance from KSR1 profile": 2.17}
{"target": "CLDN16", "PubChem SID": "SID363997371", "mean correlation with KSR1 profile": 0.301, "mean distance from KSR1 profile": 1.4}
{"target": "KALRN", "PubChem SID": "SID363995002", "mean correlation with KSR1 profile": -0.492, "mean distance from KSR1 profile": 2.59}
{"target": "KALRN", "PubChem SID": "SID363997794", "mean correlation with KSR1 profile": -0.375, "mean distance from KSR1 profile": 3.33}
{"target": "STX2", "PubChem SID": "SID363993192", "mean correlation with KSR1 profile": 0.478, "mean distance from KSR1 profile": 1.25}

Sorted by “mean distance from KSR1 profile” (descending): some entries from above
{"target": "RWDD1", "PubChem SID": "SID363999746", "mean correlation with KSR1 profile": 0.0948, "mean distance from KSR1 profile": 1.72}
{"target": "MYT1L", "PubChem SID": "SID364005123", "mean correlation with KSR1 profile": -0.299, "mean distance from KSR1 profile": 1.53}
